Assay results published in article PMC8396670.
These are yes or no findings as the source states them, for the method shown. Binding seen in cells or lysates may run through a third protein.

Chains of the proteins cited; added tags and fusions are not shown.
UniProt P63073: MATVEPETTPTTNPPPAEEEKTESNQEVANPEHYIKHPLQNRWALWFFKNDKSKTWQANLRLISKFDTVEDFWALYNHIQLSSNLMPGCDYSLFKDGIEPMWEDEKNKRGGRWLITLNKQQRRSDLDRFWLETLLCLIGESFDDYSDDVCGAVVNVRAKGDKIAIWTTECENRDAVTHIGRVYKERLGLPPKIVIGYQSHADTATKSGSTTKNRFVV
UniProt Q80U58: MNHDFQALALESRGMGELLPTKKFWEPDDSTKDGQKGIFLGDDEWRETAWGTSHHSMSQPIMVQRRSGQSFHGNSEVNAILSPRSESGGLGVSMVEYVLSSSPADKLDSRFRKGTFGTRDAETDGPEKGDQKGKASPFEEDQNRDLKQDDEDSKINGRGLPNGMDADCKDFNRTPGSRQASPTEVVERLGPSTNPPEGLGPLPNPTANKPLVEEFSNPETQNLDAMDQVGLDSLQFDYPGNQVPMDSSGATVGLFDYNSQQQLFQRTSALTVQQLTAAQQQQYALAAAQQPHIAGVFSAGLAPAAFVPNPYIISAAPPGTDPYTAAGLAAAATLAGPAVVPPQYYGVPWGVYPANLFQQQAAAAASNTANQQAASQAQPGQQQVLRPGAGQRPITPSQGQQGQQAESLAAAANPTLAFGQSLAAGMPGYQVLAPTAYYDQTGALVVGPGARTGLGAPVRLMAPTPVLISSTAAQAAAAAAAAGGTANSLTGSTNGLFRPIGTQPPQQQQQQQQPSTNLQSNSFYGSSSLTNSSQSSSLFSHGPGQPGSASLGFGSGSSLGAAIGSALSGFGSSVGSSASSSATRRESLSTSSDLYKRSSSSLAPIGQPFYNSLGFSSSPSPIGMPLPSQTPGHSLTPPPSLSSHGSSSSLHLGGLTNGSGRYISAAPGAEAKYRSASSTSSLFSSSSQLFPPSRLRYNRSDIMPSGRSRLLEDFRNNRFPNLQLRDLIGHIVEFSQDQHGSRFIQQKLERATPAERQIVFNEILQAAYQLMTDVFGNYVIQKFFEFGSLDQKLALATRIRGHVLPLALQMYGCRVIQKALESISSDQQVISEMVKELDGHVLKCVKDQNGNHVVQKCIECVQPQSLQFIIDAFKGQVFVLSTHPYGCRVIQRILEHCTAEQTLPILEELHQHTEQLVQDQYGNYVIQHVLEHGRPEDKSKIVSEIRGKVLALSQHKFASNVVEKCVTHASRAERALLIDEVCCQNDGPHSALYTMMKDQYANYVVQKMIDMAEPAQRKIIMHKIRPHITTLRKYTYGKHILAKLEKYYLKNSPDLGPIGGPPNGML

Target: eukaryotic initiation factor 4E (eIF4E) (mouse (endogenous in brain)) (UniProt P63073)
Experiment: pull-down; m7GTP beads (agarose beads as control) incubated with precleared S20 lysate of P21 mouse brain in brain extraction buffer with 100 µM GTP as competitor, 1 h at 4 °C; three washes; eluate blotted for eIF4E, PABPC1 and Pum2

**Q.** How did the binding turn out when “Pumilio2 (Pum2) (from UniProt Q80U58 1-1066)” was run?
**A.** no binding
